These results are taken from paper PMC6299479.

These are yes or no findings as the source states them, for the method shown.

For assay [1], the target named is Trichomonas vaginalis NlpC_A1 (TVAG_119910) (Trichomonas vaginalis) (UniProt A2D7D7). Put plainly: small-angle X-ray scattering (SAXS); dilution series of each protein in solution; no concentration dependence in the scattering profile; both purified.
Assay [2] deals with Trichomonas vaginalis NlpC_A2 (TVAG_457240) (Trichomonas vaginalis) (UniProt A2DC48). Described as above.

With “Trichomonas vaginalis NlpC_A1 (TVAG_119910) (from UniProt A2D7D7 1-275) (enzyme)”, the binding result in assay [1] was “no binding”.

Turning to “Trichomonas vaginalis NlpC_A2 (TVAG_457240) (from UniProt A2DC48 1-275) (enzyme)”, the binding result in assay [2] is given as “no binding”.
